Source: PMC9723622

Protein sequences, listed by entry. Tags and fused reporters are not part of them.
UniProt P09874: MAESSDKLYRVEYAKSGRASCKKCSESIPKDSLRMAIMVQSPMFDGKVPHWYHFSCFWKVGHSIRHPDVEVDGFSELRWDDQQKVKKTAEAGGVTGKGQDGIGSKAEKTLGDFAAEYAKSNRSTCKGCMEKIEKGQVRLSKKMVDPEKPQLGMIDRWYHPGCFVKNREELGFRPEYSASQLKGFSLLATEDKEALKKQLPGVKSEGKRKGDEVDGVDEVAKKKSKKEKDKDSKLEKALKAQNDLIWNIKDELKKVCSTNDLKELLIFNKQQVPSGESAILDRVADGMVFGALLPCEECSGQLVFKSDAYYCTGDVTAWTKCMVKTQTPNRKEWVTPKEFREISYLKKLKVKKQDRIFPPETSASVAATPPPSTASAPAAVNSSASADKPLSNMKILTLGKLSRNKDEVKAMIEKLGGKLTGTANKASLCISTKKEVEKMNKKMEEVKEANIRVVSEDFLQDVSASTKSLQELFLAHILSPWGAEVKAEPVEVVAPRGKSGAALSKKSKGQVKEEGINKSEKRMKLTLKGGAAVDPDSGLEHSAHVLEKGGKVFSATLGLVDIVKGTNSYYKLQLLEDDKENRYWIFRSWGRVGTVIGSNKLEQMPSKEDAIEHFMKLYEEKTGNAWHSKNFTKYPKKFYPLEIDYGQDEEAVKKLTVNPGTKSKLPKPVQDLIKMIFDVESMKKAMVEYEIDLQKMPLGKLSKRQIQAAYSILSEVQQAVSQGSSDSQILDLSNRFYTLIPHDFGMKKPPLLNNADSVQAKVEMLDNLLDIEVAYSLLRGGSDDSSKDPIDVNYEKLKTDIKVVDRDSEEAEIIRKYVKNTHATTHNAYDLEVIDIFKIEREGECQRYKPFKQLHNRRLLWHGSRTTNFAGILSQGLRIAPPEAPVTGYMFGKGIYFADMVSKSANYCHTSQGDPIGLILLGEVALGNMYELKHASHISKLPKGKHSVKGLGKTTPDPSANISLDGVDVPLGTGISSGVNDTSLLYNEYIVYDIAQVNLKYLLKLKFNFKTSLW

Target: full-length PARP1 tagged on the N-terminus with APEX2 (expressed in HEK293T cells) (human) (UniProt P09874)
Assay: proximity labelling; APEX2-PARP1 in HEK293T cells after olaparib or DMSO treatment; SILAC, NeutrAvidin pull-down, LC-MS/MS

Binder	binding
MCM6 (protein, UniProt Q14566 1-821) MDLAAAAEPGAGSQHLEVRDEVAEKCQKLFLDFLEEFQSSDGEIKYLQLAEELIRPERNTLVVSFVDLEQFNQQLSTTIQEEFYRVYPYLCRALKTFVKDRKEIPLAKDFYVAFQDLPTRHKIRELTSSRIGLLTRISGQVVRTHPVHPELVSGTFLCLDCQTVIRDVEQQFKYTQPNICRNPVCANRRRFLLDTNKSRFVDFQKVRIQETQAELPRGSIPRSLEVILRAEAVESAQAGDKCDFTGTLIVVPDVSKLSTPGARAETNSRVSGVDGYETEGIRGLRALGVRDLSYRLVFLACCVAPTNPRFGGKELRDEEQTAESIKNQMTVKEWEKVFEMSQDKNLYHNLCTSLFPTIHGNDEVKRGVLLMLFGGVPKTTGEGTSLRGDINVCIVGDPSTAKSQFLKHVEEFSPRAVYTSGKASSAAGLTAAVVRDEESHEFVIEAGALMLADNGVCCIDEFDKMDVRDQVAIHEAMEQQTISITKAGVKATLNARTSILAAANPISGHYDRSKSLKQNINLSAPIMSRFDLFFILVDECNEVTDYAIARRIVDLHSRIEESIDRVYSLDDIRRYLLFARQFKPKISKESEDFIVEQYKHLRQRDGSGVTKSSWRITVRQLESMIRLSEAMARMHCCDEVQPKHVKEAFRLLNKSIIRVETPDVNLDQEEEIQMEVDEGAGGINGHADSPAPVNGINGYNEDINQESAPKASLRLGFSEYCRISNLIVLHLRKVEEEEDESALKRSELVNWYLKEIESEIDSEEELINKKRIIEKVIHRLTHYDHVLIELTQAGLKGSTEGSESYEEDPYLVVNPNYLLED	binds
MCM3 (protein, UniProt P25205 1-808) MAGTVVLDDVELREAQRDYLDFLDDEEDQGIYQSKVRELISDNQYRLIVNVNDLRRKNEKRANRLLNNAFEELVAFQRALKDFVASIDATYAKQYEEFYVGLEGSFGSKHVSPRTLTSCFLSCVVCVEGIVTKCSLVRPKVVRSVHYCPATKKTIERRYSDLTTLVAFPSSSVYPTKDEENNPLETEYGLSVYKDHQTITIQEMPEKAPAGQLPRSVDVILDDDLVDKAKPGDRVQVVGTYRCLPGKKGGYTSGTFRTVLIACNVKQMSKDAQPSFSAEDIAKIKKFSKTRSKDIFDQLAKSLAPSIHGHDYVKKAILCLLLGGVERDLENGSHIRGDINILLIGDPSVAKSQLLRYVLCTAPRAIPTTGRGSSGVGLTAAVTTDQETGERRLEAGAMVLADRGVVCIDEFDKMSDMDRTAIHEVMEQGRVTIAKAGIHARLNARCSVLAAANPVYGRYDQYKTPMENIGLQDSLLSRFDLLFIMLDQMDPEQDREISDHVLRMHRYRAPGEQDGDAMPLGSAVDILATDDPNFSQEDQQDTQIYEKHDNLLHGTKKKKEKMVSAAFMKKYIHVAKIIKPVLTQESATYIAEEYSRLRSQDSMSSDTARTSPVTARTLETLIRLATAHAKARMSKTVDLQDAEEAVELVQYAYFKKVLEKEKKRKKRSEDESETEDEEEKSQEDQEQKRKRRKTRQPDAKDGDSYDPYDFSDTEEEMPQVHTPKTADSQETKESQKVELSESRLKAFKVALLDVFREAHAQSIGMNRLTESINRDSEEPFSSVEIQAALSKMQDDNQVMVSEGIIFLI	binds

Further lines, results first:

binding	Binder
binds	THOC1 (protein, UniProt Q96FV9 1-657) MSPTPPLFSLPEARTRFTKSTREALNNKNIKPLLSTFSQVPGSENEKKCTLDQAFRGILEEEIINHSSCENVLAIISLAIGGVTEGICTASTPFVLLGDVLDCLPLDQCDTIFTFVEKNVATWKSNTFYSAGKNYLLRMCNDLLRRLSKSQNTVFCGRIQLFLARLFPLSEKSGLNLQSQFNLENVTVFNTNEQESTLGQKHTEDREEGMDVEEGEMGDEEAPTTCSIPIDYNLYRKFWSLQDYFRNPVQCYEKISWKTFLKYSEEVLAVFKSYKLDDTQASRKKMEELKTGGEHVYFAKFLTSEKLMDLQLSDSNFRRHILLQYLILFQYLKGQVKFKSSNYVLTDEQSLWIEDTTKSVYQLLSENPPDGERFSKMVEHILNTEENWNSWKNEGCPSFVKERTSDTKPTRIIRKRTAPEDFLGKGPTKKILMGNEELTRLWNLCPDNMEACKSETREHMPTLEEFFEEAIEQADPENMVENEYKAVNNSNYGWRALRLLARRSPHFFQPTNQQFKSLPEYLENMVIKLAKELPPPSEEIKTGEDEDEEDNDALLKENESPDVRRDKPVTGEQIEVFANKLGEQWKILAPYLEMKDSEIRQIECDSEDMKMRAKQLLVAWQDQEGVHATPENLINALNKSGLSDLAESLTNDNETNS
binds	THOC3 (protein, UniProt Q96J01 1-351) MAVPAAAMGPSALGQSGPGSMAPWCSVSSGPSRYVLGMQELFRGHSKTREFLAHSAKVHSVAWSCDGRRLASGSFDKTASVFLLEKDRLVKENNYRGHGDSVDQLCWHPSNPDLFVTASGDKTIRIWDVRTTKCIATVNTKGENINICWSPDGQTIAVGNKDDVVTFIDAKTHRSKAEEQFKFEVNEISWNNDNNMFFLTNGNGCINILSYPELKPVQSINAHPSNCICIKFDPMGKYFATGSADALVSLWDVDELVCVRCFSRLDWPVRTLSFSHDGKMLASASEDHFIDIAEVETGDKLWEVQCESPTFTVAWHPKRPLLAFACDDKDGKYDSSREAGTVKLFGLPNDS
binds	RNASEH2B (protein, UniProt Q5TBB1 1-312) MAAGVDCGDGVGARQHVFLVSEYLKDASKKMKNGLMFVKLVNPCSGEGAIYLFNMCLQQLFEVKVFKEKHHSWFINQSVQSGGLLHFATPVDPLFLLLHYLIKADKEGKFQPLDQVVVDNVFPNCILLLKLPGLEKLLHHVTEEKGNPEIDNKKYYKYSKEKTLKWLEKKVNQTVAALKTNNVNVSSRVQSTAFFSGDQASTDKEEDYIRYAHGLISDYIPKELSDDLSKYLKLPEPSASLPNPPSKKIKLSDEPVEAKEDYTKFNTKDLKTEKKNSKMTAAQKALAKVDKSGMKSIDTFFGVKNKKKIGKV

Target: full-length PARP1 tagged on the N-terminus with APEX2 (expressed in U2OS cells) (human) (UniProt P09874)
Assay: proximity labelling; APEX2-PARP1 in SILAC-labelled U2OS cells; 500 uM biotin phenol 2 h, 1 mM H2O2 2 min, against no H2O2; nuclear extract, NeutrAvidin pull-down, LC-MS/MS; FDR < 1%

binding	Binder
binds	UHRF1 (protein, UniProt Q96T88 1-793) MWIQVRTMDGRQTHTVDSLSRLTKVEELRRKIQELFHVEPGLQRLFYRGKQMEDGHTLFDYEVRLNDTIQLLVRQSLVLPHSTKERDSELSDTDSGCCLGQSESDKSSTHGEAAAETDSRPADEDMWDETELGLYKVNEYVDARDTNMGAWFEAQVVRVTRKAPSRDEPCSSTSRPALEEDVIYHVKYDDYPENGVVQMNSRDVRARARTIIKWQDLEVGQVVMLNYNPDNPKERGFWYDAEISRKRETRTARELYANVVLGDDSLNDCRIIFVDEVFKIERPGEGSPMVDNPMRRKSGPSCKHCKDDVNRLCRVCACHLCGGRQDPDKQLMCDECDMAFHIYCLDPPLSSVPSEDEWYCPECRNDASEVVLAGERLRESKKKAKMASATSSSQRDWGKGMACVGRTKECTIVPSNHYGPIPGIPVGTMWRFRVQVSESGVHRPHVAGIHGRSNDGAYSLVLAGGYEDDVDHGNFFTYTGSGGRDLSGNKRTAEQSCDQKLTNTNRALALNCFAPINDQEGAEAKDWRSGKPVRVVRNVKGGKNSKYAPAEGNRYDGIYKVVKYWPEKGKSGFLVWRYLLRRDDDEPGPWTKEGKDRIKKLGLTMQYPEGYLEALANREREKENSKREEEEQQEGGFASPRTGKGKWKRKSAGGGPSRAGSPRRTSKKTKVEPYSLTAQQSSLIREDKSNAKLWNEVLASLKDRPASGSPFQLFLSKVEETFQCICCQELVFRPITTVCQHNVCKDCLDRSFRAQVFSCPACRYDLGRSYAMQVNQPLQTVLNQLFPGYGNGR
binds	ANLN (protein, UniProt Q9NQW6 1-1124) MDPFTEKLLERTRARRENLQRKMAERPTAAPRSMTHAKRARQPLSEASNQQPLSGGEEKSCTKPSPSKKRCSDNTEVEVSNLENKQPVESTSAKSCSPSPVSPQVQPQAADTISDSVAVPASLLGMRRGLNSRLEATAASSVKTRMQKLAEQRRRWDNDDMTDDIPESSLFSPMPSEEKAASPPRPLLSNASATPVGRRGRLANLAATICSWEDDVNHSFAKQNSVQEQPGTACLSKFSSASGASARINSSSVKQEATFCSQRDGDASLNKALSSSADDASLVNASISSSVKATSPVKSTTSITDAKSCEGQNPELLPKTPISPLKTGVSKPIVKSTLSQTVPSKGELSREICLQSQSKDKSTTPGGTGIKPFLERFGERCQEHSKESPARSTPHRTPIITPNTKAIQERLFKQDTSSSTTHLAQQLKQERQKELACLRGRFDKGNIWSAEKGGNSKSKQLETKQETHCQSTPLKKHQGVSKTQSLPVTEKVTENQIPAKNSSTEPKGFTECEMTKSSPLKITLFLEEDKSLKVTSDPKVEQKIEVIREIEMSVDDDDINSSKVINDLFSDVLEEGELDMEKSQEEMDQALAESSEEQEDALNISSMSLLAPLAQTVGVVSPESLVSTPRLELKDTSRSDESPKPGKFQRTRVPRAESGDSLGSEDRDLLYSIDAYRSQRFKETERPSIKQVIVRKEDVTSKLDEKNNAFPCQVNIKQKMQELNNEINMQQTVIYQASQALNCCVDEEHGKGSLEEAEAERLLLIATGKRTLLIDELNKLKNEGPQRKNKASPQSEFMPSKGSVTLSEIRLPLKADFVCSTVQKPDAANYYYLIILKAGAENMVATPLASTSNSLNGDALTFTTTFTLQDVSNDFEINIEVYSLVQKKDPSGLDKKKKTSKSKAITPKRLLTSITTKSNIHSSVMASPGGLSAVRTSNFALVGSYTLSLSSVGNTKFVLDKVPFLSSLEGHIYLKIKCQVNSSVEERGFLTIFEDVSGFGAWHRRWCVLSGNCISYWTYPDDEKRKNPIGRINLANCTSRQIEPANREFCARRNTFELITVRPQREDDRETLVSQCRDTLCVTKNWLSADTKEERDLWMQKLNQVLVDIRLWQPDACYKPIGKP

Results are given in words; binding and its absence hold for the method and conditions named. In cells and extracts the contact can be indirect. These calls come from enrichment with a bait or labelling near it, and not all partners need be listed.
